Measurements reported in paper PMC7819943, “Rice protein-binding microarrays: a tool to detect cis-acting elements near promoter regions in rice”.
The list shows a part of the results.

target: T1, OsSMF1 (Oryza sativa, UniProt Q6ZLB0 1-436); assay: protein-binding microarray (RPBM); PBS, 2% BSA, 51.3 ng/ul salmon testes DNA, 50 uM zinc acetate, 200 nM TF, 25 C, 1 h; high values mean tight binding; details: protein: recombinant; tags: N-terminal polyhistidine and DsRed monomer fusion (pET32a); chain copies: 2; label: CyDye5-dUTP incorporated in the synthesized complementary strand; 3' TTTTT single-stranded linker to array surface; dsDNA, one strand shown
T1 sequence: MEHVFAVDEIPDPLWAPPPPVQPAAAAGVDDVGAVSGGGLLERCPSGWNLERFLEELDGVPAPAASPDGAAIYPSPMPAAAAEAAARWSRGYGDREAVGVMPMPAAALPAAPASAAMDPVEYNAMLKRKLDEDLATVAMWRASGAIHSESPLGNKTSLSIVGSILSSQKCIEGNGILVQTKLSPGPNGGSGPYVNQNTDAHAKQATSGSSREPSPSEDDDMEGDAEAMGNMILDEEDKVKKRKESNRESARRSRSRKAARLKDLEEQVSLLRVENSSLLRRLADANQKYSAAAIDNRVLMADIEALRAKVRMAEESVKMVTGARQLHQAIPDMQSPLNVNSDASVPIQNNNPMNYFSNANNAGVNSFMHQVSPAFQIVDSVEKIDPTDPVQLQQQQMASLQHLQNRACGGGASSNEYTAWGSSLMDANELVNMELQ
In short: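 The binding signal is fluorescence intensity per feature, in arbitrary units, read on an Axon 4000B scanner. Polyhistidine- and DsRed-tagged transcription factors (N-terminal fusions) from E. coli BL21-CodonPlus were purified on Ni–NTA and applied at 200 nM for 1 h at 25 °C to a double-stranded, BSA-blocked custom Agilent array in buffer with 50 µM zinc acetate.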

Sequence | binding signal
GCCGATGCTTCAGCACGTGGGCTGGCAAAGCCCAGTGTGTCGGAGTCACCTAGTGCAG | 3840 fluorescence intensity (a.u.)
GGATCTTGCTTTCCATGAGGCAGGATTTTCTTTGGTCATTCGGAGTCACCTAGTGCAG | 26400 fluorescence intensity (a.u.)
GGCATGTGGTTGGCTTCTGGAACCGTACGTGTTGCGTTTTCGGAGTCACCTAGTGCAG | 3320 fluorescence intensity (a.u.)
CGCTGAGGTAGCTGCCACGTCAGCTGGGGATCGGCCCGGCCGGAGTCACCTAGTGCAG | 34400 fluorescence intensity (a.u.)
ACGGCTGGGGCCACACTCCGGTACACGTACACGACGAGACCGGAGTCACCTAGTGCAG | 3560 fluorescence intensity (a.u.)
TACTGCCCTAGAGCCGCCTCACGTGGACTTATATGCGGTTCGGAGTCACCTAGTGCAG | 4460 fluorescence intensity (a.u.)
CTCACCTACCGCATCTGTGTTCCTTTTGCTTTCTTTCTTTCGGAGTCACCTAGTGCAG | 3140 fluorescence intensity (a.u.)
TGCAGTATCTGCCGTTCGTATCGCTGCGTTGAATCTTCCACGGAGTCACCTAGTGCAG | 47100 fluorescence intensity (a.u.)
GTTCGGCCGAACCCGGGGTGGCTCTGTTCGCTCCAGTTTTCGGAGTCACCTAGTGCAG | 3470 fluorescence intensity (a.u.)
AAGCTTGTGATGTGAAACGTACGCGTGTCTGCATTGGCCTCGGAGTCACCTAGTGCAG | 6570 fluorescence intensity (a.u.)
CCTTCTCGGGCTTTGTTGTACGTATGCGTCTCGTGTTGGGCGGAGTCACCTAGTGCAG | 3460 fluorescence intensity (a.u.)
GACATCCGCCACGGTGCCGTGTCATCGGCGCGGGTGACCACGGAGTCACCTAGTGCAG | 6240 fluorescence intensity (a.u.)
TCCCTCTCCCAAAGTCAAACCCAAAATACAACACAATTGTCGGAGTCACCTAGTGCAG | 3510 fluorescence intensity (a.u.)
CTAAACTAATCAGGCGCCACGTCGGATGTGCTTACCACGTCGGAGTCACCTAGTGCAG | 28100 fluorescence intensity (a.u.)
GTGAAATTATCGCCCAAAACGCAATGCCTCGTCCAGCCAGCGGAGTCACCTAGTGCAG | 3240 fluorescence intensity (a.u.)
CCGGGCGAGCTCGAGCTCGAACACGTACGTTGGATGACCTCGGAGTCACCTAGTGCAG | 3820 fluorescence intensity (a.u.)
ATTTTAAAATTTATAATTACAATGTGAGTGTAAGCAAGTGCGGAGTCACCTAGTGCAG | 3220 fluorescence intensity (a.u.)
GATATATAGGGTGATTAGTTTGAATCATGACAAATTTGCTCGGAGTCACCTAGTGCAG | 4260 fluorescence intensity (a.u.)
GTGCATCTGGGCCACGTGGCGCTTCGTTTCTTTCCTCCCCCGGAGTCACCTAGTGCAG | 35900 fluorescence intensity (a.u.)
CTCTGCCCCACGTTGGCTCGCGTCCGCGGCCCATCTCCACCGGAGTCACCTAGTGCAG | 4370 fluorescence intensity (a.u.)
AATGTGATGACTGGACTGCCATGTCAGCCAATATCACCTTCGGAGTCACCTAGTGCAG | 15900 fluorescence intensity (a.u.)

Some of the entries so far, comma-delimited.
Sequence,binding signal
CTCACCTACCGCATCTGTGTTCCTTTTGCTTTCTTTCTTTCGGAGTCACCTAGTGCAG,3140 fluorescence intensity (a.u.)
GTGAAATTATCGCCCAAAACGCAATGCCTCGTCCAGCCAGCGGAGTCACCTAGTGCAG,3240 fluorescence intensity (a.u.)
GATATATAGGGTGATTAGTTTGAATCATGACAAATTTGCTCGGAGTCACCTAGTGCAG,4260 fluorescence intensity (a.u.)

The list goes on.

Sequence | binding signal
GCAGAGCAAGGAGTAGTAGGTAGGACAAGTGGTGACGGGGCGGAGTCACCTAGTGCAG | 3170 fluorescence intensity (a.u.)
GCTCGCGAGTCGCGATTCGTACGTGGAGACGACGAGTCGTCGGAGTCACCTAGTGCAG | 3310 fluorescence intensity (a.u.)
TTTTGTTGTACTTTTCTTTGCAGATGTTAATGTCAGGTCACGGAGTCACCTAGTGCAG | 3470 fluorescence intensity (a.u.)
AATTGCTATGGTTACACCCGGCCGAAGCAAAGTCACCACTCGGAGTCACCTAGTGCAG | 3520 fluorescence intensity (a.u.)
CGTCCCATTTTAAATGCGGTTATAGATTTTCGTCTCCAACCGGAGTCACCTAGTGCAG | 3530 fluorescence intensity (a.u.)
GGCAGCTTAAGAAGGTTGTACACGTGGGCAACCGCCCATCCGGAGTCACCTAGTGCAG | 4360 fluorescence intensity (a.u.)
TGCATTCTGCCGATCTGCAAGGGACTATCTATCCTACTGGCGGAGTCACCTAGTGCAG | 28600 fluorescence intensity (a.u.)
CACTAAGTACTCAACTCTTCTTCAACGTGTCATTGCTCACCGGAGTCACCTAGTGCAG | 6650 fluorescence intensity (a.u.)
GCATCCACAGCATCGAGGTGACGCTACTCATCGTCAACCACGGAGTCACCTAGTGCAG | 4900 fluorescence intensity (a.u.)
CTTATTTACCTTAACTTAGGTTGCAGCTCAGAACAACCCGCGGAGTCACCTAGTGCAG | 16000 fluorescence intensity (a.u.)
TCCTCGCTTTAGCTTCAAATTCCGTGTGTCATAGATGTTGCGGAGTCACCTAGTGCAG | 3730 fluorescence intensity (a.u.)
GATCTCGCTTCTGCCCCGTGGCCACATGCGAACATAACCACGGAGTCACCTAGTGCAG | 3870 fluorescence intensity (a.u.)
GTCAACCACAATCAATATGCCACATCAGCACAGACCACCTCGGAGTCACCTAGTGCAG | 12800 fluorescence intensity (a.u.)
CCTCCACGTGTCCCCACGCAGCCCTCGCCCTCCCATTTCTCGGAGTCACCTAGTGCAG | 13100 fluorescence intensity (a.u.)
GTGGTGTGCTTGCTAATTTAGCAGATTAAACCGGTTTTATCGGAGTCACCTAGTGCAG | 5760 fluorescence intensity (a.u.)
TCTATGTCTTGCTTAGTCACTACTCCGTGGATGAGACTCCCGGAGTCACCTAGTGCAG | 8830 fluorescence intensity (a.u.)
GGCTTTTCTGGCGAAAATGCCACGGCGGCGCTGGACCGGTCGGAGTCACCTAGTGCAG | 4750 fluorescence intensity (a.u.)
TTTGGTTATTCTCGTGCATGTCATGCAGAGCTGGAATCTCCGGAGTCACCTAGTGCAG | 4670 fluorescence intensity (a.u.)
TGAAATACTTACAAGTCGATCGAACAACACCTGTCATCATCGGAGTCACCTAGTGCAG | 4160 fluorescence intensity (a.u.)
TTCTTGTATCTCTATAGGTTGTTAGAGCGGCGACGGCGAGCGGAGTCACCTAGTGCAG | 16500 fluorescence intensity (a.u.)
GCAATTCTGGTCCCATAACAGTATGGATGTCTAGTCAGCACGGAGTCACCTAGTGCAG | 6530 fluorescence intensity (a.u.)
